Measurements published in patent publication US5039528A, “EAA antagonists as anti-emetic drugs” (priority 1989, dated 1991).
At least one compound was matched to its structure with a doubt left.

How the values were obtained:
dogs [1] = assay: Emesis induction by NMDA in dogs; blockage by D-AP5; type: in vivo, dog; details: 2 mg/kg SC with NMDA
Experimental: Therefore, each dog (all were young adults) was used for more than one experiment. Typically, one or more tests would be done using NMDA to determine an effective dosage for an individual dog. After the dose was established, an experiment was conducted on a subsequent day in which the dog also received 2 mg/kg D-AP5 subcutaneously (SC), along with the NMDA. On the day after that, NMDA was administered alone, to ensure that the emetic response was unchanged and the dog had not developed tolerance or sustained damage to the emesis-mediating reflexes.

dogs [2] = assay: Emesis induction by glutamate in dogs; blockage by D-AP5 or Kyn; type: in vivo, dog; details: D-AP5 at doses up to 25 mg/kg SC

N[C@H](CCCP(=O)(O)O)C(=O)O [D-AP5, D-2-amino-5-phosphonopentanoate]
blockage of NMDA-induced emesis (dogs [1]): blocked the emesis response in all dogs
blockage of glutamate-induced emesis (dogs [2]): could not be blocked
